Measured values from patent US8609419B2, “Method for inserting a nucleic acid of interest into a prokaryotic or eukaryotic cell by homologous recombination” (Centre National de la Recherche Scientifique, priority 2002, dated 2013).

System: DNA vector (plasmid, 5,000 pair of bases long)
Assay: Number of N-AcO-AAF molecules bound per DNA vector (UV spectrophotometry and radioactivity counting)
Conditions: 60 μg DNA vector with 1.2 μg N-AcO-AAF

Compound `CC(=O)ON(C(C)=O)c1ccc2c(c1)Cc1ccccc1-2` [N-AcO-AAF, N-acetoxy-2-acetylaminofluorene] has a modified bases (step a) 4 minutes) of 0.26%, a modified bases (step a) 8 minutes) of 0.36% and a modified bases (step a) 20 minutes) of 1.12%.
